Source: article PMC4427985
No constants are given. Whether binding was seen depends on the method and setting. In cells and extracts the contact can be indirect. Some binding calls cover weakened binding; strength is not graded here. Tags and fused reporters may be left off the sequences shown.

Chains of the proteins cited; added tags and fusions are not shown.
UniProt P42224: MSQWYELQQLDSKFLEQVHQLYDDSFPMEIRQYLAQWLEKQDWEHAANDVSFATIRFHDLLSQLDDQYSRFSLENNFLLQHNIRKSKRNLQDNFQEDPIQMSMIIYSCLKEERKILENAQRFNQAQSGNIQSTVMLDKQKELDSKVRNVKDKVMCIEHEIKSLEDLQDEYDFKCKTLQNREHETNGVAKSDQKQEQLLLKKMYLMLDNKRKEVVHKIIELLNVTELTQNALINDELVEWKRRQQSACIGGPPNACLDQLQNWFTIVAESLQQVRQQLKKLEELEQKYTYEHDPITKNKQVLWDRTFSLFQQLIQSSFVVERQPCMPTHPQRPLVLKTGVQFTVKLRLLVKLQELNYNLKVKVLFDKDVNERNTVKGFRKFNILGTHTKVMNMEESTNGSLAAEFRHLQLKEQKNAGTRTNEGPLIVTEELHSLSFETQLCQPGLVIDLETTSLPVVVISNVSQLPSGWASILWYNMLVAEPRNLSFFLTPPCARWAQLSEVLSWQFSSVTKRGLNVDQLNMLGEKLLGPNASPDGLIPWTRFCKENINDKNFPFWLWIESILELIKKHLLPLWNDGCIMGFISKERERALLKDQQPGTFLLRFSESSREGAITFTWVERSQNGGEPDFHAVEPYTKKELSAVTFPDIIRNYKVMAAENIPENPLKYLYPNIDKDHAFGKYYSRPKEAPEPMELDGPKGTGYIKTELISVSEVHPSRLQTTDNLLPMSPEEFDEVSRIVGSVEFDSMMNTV

Target: T1, FLAG-tagged DLX4 fused to GFP (UniProt Q92988)
T1 sequence: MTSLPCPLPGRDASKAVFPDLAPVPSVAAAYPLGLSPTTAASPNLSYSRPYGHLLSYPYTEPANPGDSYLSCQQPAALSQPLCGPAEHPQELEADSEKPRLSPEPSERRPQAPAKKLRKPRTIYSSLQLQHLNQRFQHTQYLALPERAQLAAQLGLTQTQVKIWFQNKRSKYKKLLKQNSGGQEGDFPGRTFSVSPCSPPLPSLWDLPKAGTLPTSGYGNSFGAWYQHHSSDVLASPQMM
Experiment: co-IP; 2 mg extract of U3A cells (stimulated with IFN-gamma 10 ng/mL for 1 h), pre-cleared with protein G agarose, incubated with FLAG Ab or control Ig in lysis buffer (20 mM Tris-HCl pH 8.0, 100 mM NaCl, 1% Nonidet P-40, 10% glycerol, 2 mM EDTA); immunoprecipitates blotted with Ab to STAT1

binding: binds
Substance: GFP-STAT1 fusion protein (from UniProt P42224 1-750)
